Our source for the binding values is PMC12097018.

By UniProt entry, the sequences of proteins in these tests, tags left out.
UniProt Q92793: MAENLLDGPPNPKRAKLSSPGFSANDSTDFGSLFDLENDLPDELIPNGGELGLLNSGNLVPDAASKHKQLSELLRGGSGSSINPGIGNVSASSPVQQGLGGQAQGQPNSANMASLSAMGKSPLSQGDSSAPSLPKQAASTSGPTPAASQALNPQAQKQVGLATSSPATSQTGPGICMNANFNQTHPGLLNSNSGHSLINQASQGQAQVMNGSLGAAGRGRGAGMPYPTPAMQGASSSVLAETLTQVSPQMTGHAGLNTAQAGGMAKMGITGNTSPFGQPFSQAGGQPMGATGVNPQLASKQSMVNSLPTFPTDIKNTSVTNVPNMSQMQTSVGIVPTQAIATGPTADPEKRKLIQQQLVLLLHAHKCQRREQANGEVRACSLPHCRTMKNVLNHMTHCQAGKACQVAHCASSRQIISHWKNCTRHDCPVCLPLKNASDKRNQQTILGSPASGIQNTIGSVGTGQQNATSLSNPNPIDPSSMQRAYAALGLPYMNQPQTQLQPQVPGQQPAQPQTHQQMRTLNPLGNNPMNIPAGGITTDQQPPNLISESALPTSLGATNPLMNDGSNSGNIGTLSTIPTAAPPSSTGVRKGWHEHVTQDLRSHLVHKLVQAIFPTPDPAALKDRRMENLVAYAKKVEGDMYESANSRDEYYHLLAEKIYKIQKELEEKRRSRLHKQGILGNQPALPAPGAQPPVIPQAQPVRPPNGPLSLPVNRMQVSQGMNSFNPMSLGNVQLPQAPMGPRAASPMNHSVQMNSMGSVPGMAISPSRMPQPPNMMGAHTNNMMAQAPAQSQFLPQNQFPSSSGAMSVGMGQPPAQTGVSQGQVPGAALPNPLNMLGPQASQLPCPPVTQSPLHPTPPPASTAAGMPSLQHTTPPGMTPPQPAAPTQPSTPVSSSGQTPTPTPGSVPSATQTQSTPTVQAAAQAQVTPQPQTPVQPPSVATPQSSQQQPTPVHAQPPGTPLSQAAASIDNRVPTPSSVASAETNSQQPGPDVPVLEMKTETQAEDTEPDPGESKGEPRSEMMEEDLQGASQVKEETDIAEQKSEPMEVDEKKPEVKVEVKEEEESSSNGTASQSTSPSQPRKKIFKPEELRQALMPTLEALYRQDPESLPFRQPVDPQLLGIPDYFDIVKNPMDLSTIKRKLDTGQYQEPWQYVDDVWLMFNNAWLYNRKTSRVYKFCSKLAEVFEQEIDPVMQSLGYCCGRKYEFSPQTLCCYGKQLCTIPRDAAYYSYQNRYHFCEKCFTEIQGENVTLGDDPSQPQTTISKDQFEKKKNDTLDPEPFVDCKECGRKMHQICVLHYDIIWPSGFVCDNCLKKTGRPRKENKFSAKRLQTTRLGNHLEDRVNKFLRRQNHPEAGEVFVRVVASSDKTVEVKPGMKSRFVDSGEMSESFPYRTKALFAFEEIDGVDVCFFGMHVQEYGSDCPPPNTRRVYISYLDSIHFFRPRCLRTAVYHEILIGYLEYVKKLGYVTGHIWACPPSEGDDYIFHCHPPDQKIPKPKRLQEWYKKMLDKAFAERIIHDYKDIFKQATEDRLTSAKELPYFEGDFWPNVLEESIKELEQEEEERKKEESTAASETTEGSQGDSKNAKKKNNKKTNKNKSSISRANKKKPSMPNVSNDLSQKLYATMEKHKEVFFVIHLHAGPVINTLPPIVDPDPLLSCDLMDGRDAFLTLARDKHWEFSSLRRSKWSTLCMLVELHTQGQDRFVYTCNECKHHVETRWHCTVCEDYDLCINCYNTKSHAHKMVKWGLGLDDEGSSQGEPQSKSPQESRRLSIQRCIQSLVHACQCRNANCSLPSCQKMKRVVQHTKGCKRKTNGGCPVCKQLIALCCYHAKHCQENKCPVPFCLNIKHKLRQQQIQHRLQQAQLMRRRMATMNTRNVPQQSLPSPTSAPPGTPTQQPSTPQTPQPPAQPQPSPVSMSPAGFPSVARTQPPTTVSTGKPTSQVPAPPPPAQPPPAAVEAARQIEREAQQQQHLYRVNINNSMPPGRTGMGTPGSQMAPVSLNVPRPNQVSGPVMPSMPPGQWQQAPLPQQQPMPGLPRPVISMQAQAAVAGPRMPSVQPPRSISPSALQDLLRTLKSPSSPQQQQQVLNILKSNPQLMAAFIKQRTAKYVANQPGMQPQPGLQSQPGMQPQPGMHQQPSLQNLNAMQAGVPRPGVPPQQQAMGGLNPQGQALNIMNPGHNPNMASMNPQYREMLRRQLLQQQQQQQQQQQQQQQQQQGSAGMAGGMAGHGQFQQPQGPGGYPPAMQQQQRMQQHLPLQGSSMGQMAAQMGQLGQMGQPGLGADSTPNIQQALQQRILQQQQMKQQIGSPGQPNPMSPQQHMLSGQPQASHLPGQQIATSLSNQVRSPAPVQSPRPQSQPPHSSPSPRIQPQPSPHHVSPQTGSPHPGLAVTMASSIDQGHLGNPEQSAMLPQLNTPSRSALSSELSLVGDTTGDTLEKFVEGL
UniProt Q09472: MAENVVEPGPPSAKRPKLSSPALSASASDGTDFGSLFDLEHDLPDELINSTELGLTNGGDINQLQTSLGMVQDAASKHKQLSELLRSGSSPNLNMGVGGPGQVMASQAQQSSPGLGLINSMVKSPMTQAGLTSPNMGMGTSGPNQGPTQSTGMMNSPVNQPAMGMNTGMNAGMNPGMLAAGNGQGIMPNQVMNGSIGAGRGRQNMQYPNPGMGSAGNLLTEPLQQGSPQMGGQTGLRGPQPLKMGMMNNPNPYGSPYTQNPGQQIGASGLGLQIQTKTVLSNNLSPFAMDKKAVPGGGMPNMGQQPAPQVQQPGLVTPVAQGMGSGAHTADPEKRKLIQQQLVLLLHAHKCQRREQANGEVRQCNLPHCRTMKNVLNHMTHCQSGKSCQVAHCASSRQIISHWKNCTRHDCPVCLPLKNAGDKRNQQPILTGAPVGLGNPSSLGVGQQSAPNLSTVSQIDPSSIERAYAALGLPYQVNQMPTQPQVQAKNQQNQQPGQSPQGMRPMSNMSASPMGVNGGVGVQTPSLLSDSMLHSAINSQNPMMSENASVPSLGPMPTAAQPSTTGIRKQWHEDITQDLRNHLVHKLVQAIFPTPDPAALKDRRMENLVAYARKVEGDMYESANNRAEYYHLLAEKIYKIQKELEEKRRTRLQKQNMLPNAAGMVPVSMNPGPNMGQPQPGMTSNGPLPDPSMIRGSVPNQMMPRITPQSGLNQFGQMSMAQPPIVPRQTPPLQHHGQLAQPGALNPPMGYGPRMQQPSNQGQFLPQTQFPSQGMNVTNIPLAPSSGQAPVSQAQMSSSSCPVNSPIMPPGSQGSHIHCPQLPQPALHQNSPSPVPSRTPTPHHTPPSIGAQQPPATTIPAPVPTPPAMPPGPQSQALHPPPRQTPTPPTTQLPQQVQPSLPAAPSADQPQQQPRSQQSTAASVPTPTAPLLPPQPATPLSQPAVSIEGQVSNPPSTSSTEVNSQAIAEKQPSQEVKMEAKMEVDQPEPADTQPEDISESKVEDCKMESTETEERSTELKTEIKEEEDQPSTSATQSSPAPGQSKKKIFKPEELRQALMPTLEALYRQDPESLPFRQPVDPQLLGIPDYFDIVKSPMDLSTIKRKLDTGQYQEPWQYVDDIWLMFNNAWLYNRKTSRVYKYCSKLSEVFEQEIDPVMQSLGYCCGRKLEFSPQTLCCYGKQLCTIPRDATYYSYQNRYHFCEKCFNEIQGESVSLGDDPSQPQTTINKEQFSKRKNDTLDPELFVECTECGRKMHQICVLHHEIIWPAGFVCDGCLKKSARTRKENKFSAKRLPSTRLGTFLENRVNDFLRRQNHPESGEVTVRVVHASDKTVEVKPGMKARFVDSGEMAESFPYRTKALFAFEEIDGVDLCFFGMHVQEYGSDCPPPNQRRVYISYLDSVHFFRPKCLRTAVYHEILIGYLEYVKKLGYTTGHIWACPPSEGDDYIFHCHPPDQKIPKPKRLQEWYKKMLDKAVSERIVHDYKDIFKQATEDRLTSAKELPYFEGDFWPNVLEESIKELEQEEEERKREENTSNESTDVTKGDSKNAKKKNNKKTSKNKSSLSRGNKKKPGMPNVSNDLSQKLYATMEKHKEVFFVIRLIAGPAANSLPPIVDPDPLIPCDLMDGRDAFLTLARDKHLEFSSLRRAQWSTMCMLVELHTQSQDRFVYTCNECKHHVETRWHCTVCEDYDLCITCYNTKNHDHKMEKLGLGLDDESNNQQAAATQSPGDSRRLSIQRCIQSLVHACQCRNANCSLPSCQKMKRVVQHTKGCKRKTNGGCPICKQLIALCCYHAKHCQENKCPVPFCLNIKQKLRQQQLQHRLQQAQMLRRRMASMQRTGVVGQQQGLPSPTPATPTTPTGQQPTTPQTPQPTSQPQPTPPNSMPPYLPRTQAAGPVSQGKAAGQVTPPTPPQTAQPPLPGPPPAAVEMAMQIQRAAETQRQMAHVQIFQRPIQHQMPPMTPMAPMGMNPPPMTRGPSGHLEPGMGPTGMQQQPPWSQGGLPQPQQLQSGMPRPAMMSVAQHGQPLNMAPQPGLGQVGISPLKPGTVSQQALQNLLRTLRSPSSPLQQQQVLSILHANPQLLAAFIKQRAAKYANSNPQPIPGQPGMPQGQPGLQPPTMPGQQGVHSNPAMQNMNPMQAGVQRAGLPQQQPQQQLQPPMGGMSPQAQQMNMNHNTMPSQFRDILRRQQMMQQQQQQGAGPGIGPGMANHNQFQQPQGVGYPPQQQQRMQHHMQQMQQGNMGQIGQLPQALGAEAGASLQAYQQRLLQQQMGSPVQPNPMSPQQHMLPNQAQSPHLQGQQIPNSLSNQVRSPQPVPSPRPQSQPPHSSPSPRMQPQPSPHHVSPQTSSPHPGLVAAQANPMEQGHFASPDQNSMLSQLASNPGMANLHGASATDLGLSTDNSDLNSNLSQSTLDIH

This test has as its target T1, Hemagglutinin (HA) tagged SEI1 protein (HA‐SEI1) (human) (UniProt Q9UHV2).
T1 sequence: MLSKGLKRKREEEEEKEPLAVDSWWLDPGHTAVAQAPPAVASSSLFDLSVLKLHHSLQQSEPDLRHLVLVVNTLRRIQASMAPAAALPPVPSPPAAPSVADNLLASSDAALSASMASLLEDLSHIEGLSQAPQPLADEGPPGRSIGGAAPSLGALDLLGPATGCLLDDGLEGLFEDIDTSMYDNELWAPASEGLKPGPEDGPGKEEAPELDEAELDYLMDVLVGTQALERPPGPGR
Nature of the test: affinity purification with mass spectrometry; lysate of IM-9 cells overexpressing HA-SEI1 immunoprecipitated with agarose-immobilized HA antibody at 4 °C overnight, six washes, nano-LC/MS/MS; IM-9 cells with empty vector as control.

Results are given in words; binding and its absence hold for the method and conditions named. In cells and extracts the contact can be indirect. A yes stands for co-enrichment or nearness to the bait. Other partners may have been found. Tags and fused reporters may be left off the sequences shown.

Consider “CREB‐binding protein (CBP), endogenous in IM-9 cells (from UniProt Q92793 1-2442)”, for which the binding entry was “binds”.

Take “p300, endogenous in myeloma cells (from UniProt Q09472 1-2414)”: the binding result is on record as “binds”.
